Data from PubChem BioAssay AID1671190 (National Center for Advancing Translational Sciences (NCATS), 2021).
The campaign covered roughly 580,000 compounds. About 6,100 (1.1%) were called active. Inconclusive results, whose numbers are uncertain, are shown with a selection of clear calls. Calls come from the whole dose curve; as a rule, active = well fitted inhibition curve with a large enough effect; inconclusive = small, poorly fitted or top-dose-only effect, or another doubt; inactive = no such curve, though single readings can be large or run the other way. Where the call is inconclusive, the potency comes from a doubtful curve fit.

The chains behind the UniProt entries cited, without tags or fusion partners. Where a name states a change or a piece, a line headed by the entry shows the natural chain unless it says otherwise.
UniProt P18054: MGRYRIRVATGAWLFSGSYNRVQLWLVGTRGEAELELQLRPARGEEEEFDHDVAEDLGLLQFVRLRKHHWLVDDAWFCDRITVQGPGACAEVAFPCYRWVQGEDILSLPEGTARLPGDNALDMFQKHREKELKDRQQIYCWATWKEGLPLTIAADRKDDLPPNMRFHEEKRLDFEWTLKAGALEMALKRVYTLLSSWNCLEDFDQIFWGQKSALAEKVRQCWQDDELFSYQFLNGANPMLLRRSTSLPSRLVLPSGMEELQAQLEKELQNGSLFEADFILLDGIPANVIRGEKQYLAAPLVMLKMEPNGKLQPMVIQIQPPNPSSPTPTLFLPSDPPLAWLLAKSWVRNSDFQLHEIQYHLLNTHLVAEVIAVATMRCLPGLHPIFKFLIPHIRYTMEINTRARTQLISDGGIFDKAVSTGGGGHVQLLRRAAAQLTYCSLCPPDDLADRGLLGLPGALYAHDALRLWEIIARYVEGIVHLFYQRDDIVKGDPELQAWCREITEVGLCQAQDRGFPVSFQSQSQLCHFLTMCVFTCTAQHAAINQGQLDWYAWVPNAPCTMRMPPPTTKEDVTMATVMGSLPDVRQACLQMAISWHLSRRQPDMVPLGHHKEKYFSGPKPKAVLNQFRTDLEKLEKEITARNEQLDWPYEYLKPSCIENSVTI

What follows are compounds tested against Polyunsaturated fatty acid lipoxygenase ALOX12 (Homo sapiens) (UniProt P18054) (assay: Primary qHTS assay for inhibitors of human arachidonate 12S-lipoxygenase (ALOX12): Round 2). Conditions: purified 12hLO, xylenol orange hydroperoxide absorbance; activity change, negative = inhibition: at 108 µM (top of the series) unless noted.
Summary of the method: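 Purified human 12hLO at 150 nM in 25 mM Hepes, 0.01% Triton X-100, pH 7.0, preincubated 15 min at room temperature with compound. Reaction started with 40 uM arachidonic acid, 30 min at room temperature. Hydroperoxide measured by Fe-xylenol orange, 573/405 nm absorbance ratio.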
% is set by controls: 0 for no effect and ±100 for the full control effect; potency is the fitted concentration of half-maximal effect.

Row | Structure (SMILES) | activity change, negative = inhibition | Potency
1 | COCCn1cnnc1SC(C)c1ccccc1Cl (configuration not stated) | inactive: -0.691% | 
2 | CCOC(=O)c1c(C)[nH]c(C)c1C(=O)COC(=O)/C=C/c1ccc(OC)cc1 | inactive: -26.3% | 
3 | Cc1cc(C)nc(NS(=O)(=O)c2ccc(NC(=S)NC(=O)CC(C)C)cc2)n1 |  | inconclusive: 79.4 µM [inhibitor, partial curve, poor fit]
4 | COCC(=O)N(C1CCOCC1)C1CCN(C(=O)c2ccncc2)CC1 | inactive: 54.8% | 
5 | CC1(C)Cc2c(c(N3CCOCC3)nc3sc4c(NCC5CCCO5)nnnc4c23)CS1 (configuration not stated) | inactive: 59.7% | 
6 | Cc1ccc(NS(=O)(=O)c2ccc3c(c2)c(=O)n(C)c(=O)n3C)cc1F | inactive: -7.65% | 
7 | O=C1NC(=O)C(Cc2cccc(Oc3ccccc3)c2)S1 (configuration not stated) |  | inconclusive: 79.4 µM [inhibitor, partial curve, poor fit]
8 | Cc1sc(-c2cccnc2)nc1OC(=O)C1CC1 |  | inconclusive: 100 µM [inhibitor, partial curve, poor fit]
9 | Cc1nc(C2CCCCN2C(=O)NC2CCCCC2)n[nH]1 (configuration not stated) | inactive: 3.59% | 
10 | O=S(Cc1ccccc1)Cc1cccc(Cl)c1 (configuration not stated) |  | inconclusive: 126 µM [inhibitor, single point]
11 | CC(=O)Nc1ccc(S(=O)(=O)C(C#N)c2nc3ccccc3nc2NCCCO)cc1 (configuration not stated) |  | inconclusive: 100 µM [inhibitor, single point]
12 | O=C(CNC(=O)c1ccc(Br)o1)NCc1cccc(Cl)c1 | inactive: -8.95% | 
13 | COc1ccc(CC(=O)Nc2ccccc2N2CCCC2)cc1 | inactive: -10% | 
14 | CCOC(=O)c1c(NC(=O)C2=C(C)NC(=S)NC2c2ccc(F)cc2)sc(C)c1C (configuration not stated) |  | active: 28.2 µM
15 | O=C1OC(c2cccs2)=N/C1=C\c1ccc(-c2ccccc2Cl)o1 |  | inconclusive: 8.91 µM [inhibitor, full curve, poor fit]
16 | CCCCn1c(=O)[nH]c(=O)c2c1nc(COC(=O)C(CC)c1ccccc1)n2C (configuration not stated) |  | inconclusive: 50.1 µM [inhibitor, partial curve, poor fit]
17 | CCOC(=O)C1(CCc2ccccc2)CCN(C(=O)CCc2cnn(C)c2)CC1 |  | inconclusive: 112 µM [inhibitor, partial curve, poor fit]
18 | CC(C)C1Cc2c(C#N)c(N)sc(=S)c2CO1 (configuration not stated) |  | inconclusive: 7.94 µM [inhibitor, full curve, poor fit]
19 | CCSC1=N/C(=C\c2c(C)cc(C)cc2C)C(=O)S1 | inactive: -37.2% | 

Reprinted at random: two records from the list
Row | Structure (SMILES) | activity change, negative = inhibition | Potency
7 | O=C1NC(=O)C(Cc2cccc(Oc3ccccc3)c2)S1 (configuration not stated) |  | inconclusive: 79.4 µM [inhibitor, partial curve, poor fit]
5 | CC1(C)Cc2c(c(N3CCOCC3)nc3sc4c(NCC5CCCO5)nnnc4c23)CS1 (configuration not stated) | inactive: 59.7% | 

More records.

Row | Structure (SMILES) | activity change, negative = inhibition | Potency
20 | CCC(C)(C)C1CCC(NC(=O)N2CCN(c3ccccc3O)CC2)CC1 (configuration not stated) | inactive: -14.6% | 
21 | O=C(O)Cn1nncc1-c1ccc(C(F)(F)F)cc1 |  | inconclusive: 56.2 µM [inhibitor, partial curve, poor fit]
22 | O=C(COc1ccc(S(=O)(=O)NC2CCCCC2)cc1Cl)NCc1cccnc1 |  | inconclusive: 39.8 µM [inhibitor, partial curve, poor fit]
23 | CCCC(=O)Nc1ccc(-c2csc(NC)n2)cc1 |  | inconclusive: 17.8 µM [inhibitor, full curve]
24 | NC1(C(=O)O)Cc2ccccc2C1 |  | inconclusive: 56.2 µM [inhibitor, full curve, poor fit]
25 | CC1=C(C(=O)N(C)C)CC(CC(=O)NCC2CCCCC2)C(=O)N1CCCN1CCCC1=O (configuration not stated) |  | inconclusive: 2.51 µM [inhibitor, single point]
26 | COc1cc(CC(=O)Nc2ccccc2-c2ccccc2)cc(OC)c1OC | inactive: -2.39% | 
27 | CSCC(O)Cn1[nH]c(=O)c2cc(Cl)c(Cl)cc2c1=O (configuration not stated) |  | inconclusive: 141 µM [inhibitor, single point]
28 | O=C(CSc1nc2ccccc2c(=O)n1-c1ccccc1)N1CCc2ccccc2C1 |  | inconclusive: 56.2 µM [inhibitor, full curve, poor fit]
29 | O=C(Nc1ccc2c(c1)OCCCO2)c1sc(-c2ccco2)nc1-c1ccccc1 | inactive: 0.212% | 
30 | O=C1CN(S(=O)(=O)c2ccccc2Cl)CCN1 | inactive: -3.21% | 
31 | COc1cc(C(=O)OCC(=O)N(CC(C)C)C2CCS(=O)(=O)C2)cc(OC)c1C (configuration not stated) |  | inconclusive: 39.8 µM [inhibitor, partial curve, poor fit]
32 | Cc1ccc2nc(SCC(=O)c3ccc(Cl)s3)[nH]c2c1 |  | inconclusive: 50.1 µM [inhibitor, partial curve, poor fit]
33 | Cc1nc2ccc(S(=O)(=O)N(C)CC(=O)Nc3cccc(C(F)(F)F)c3)cc2s1 | inactive: -12.2% | 
34 | Cc1ccc2nc(N/C(N)=N/S(=O)(=O)c3ccccc3)nc(C)c2c1 |  | inconclusive: 50.1 µM [inhibitor, partial curve, poor fit]
35 | CC(C)(C)NS(=O)(=O)c1ccc(N2C(=O)c3ccccc3C2=O)cc1 | inactive: 1.22% | 
36 | Cc1ccc(C(=O)/C=C/c2cn(CC(O)CN3CCOCC3)c3ccccc23)cc1 (configuration not stated) |  | inconclusive: 50.1 µM [inhibitor, partial curve, poor fit]
37 | CCN1CCN(c2ccc(S(=O)(=O)N(CC)CC)cc2NC(=O)c2ccc(F)cc2)CC1 | inactive: -43.2% | 
